Reference: patent publication US20090137411A1, “Methods and biochips for detecting small molecule compounds” (priority 2004, published 2009)

System: anti-drug mouse monoclonal antibodies
Experiment: Biochip competitive immunoassay for prohibited substances in urine
Type: binding
Settings: competitive immunoassay on chip

CN1CC[C@]23c4c5ccc(O)c4O[C@H]2[C@@H](O)C=C[C@H]3[C@H]1C5 [Morphine, morphine]
Cutoff value (the 50% inhibitory concentration): 1.7 µg/L
